Results as given in the supplement of paper PMC10735217.
Counter-ions that a name gives are not always drawn. This is one part of the list. Repeats in this data set agree poorly, so a single value says little.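 In a drug-repurposing library screen, luminescence reads luciferase driven by eight TEAD-binding elements, stably integrated into human kidney-derived cells. Compounds scoring over five robust Z scores above the plate mean are called hits.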

Test system: HEK293A TEAD-LUC reporter
Experiment: TEAD-luciferase reporter activity (YAP activation), robust Z score vs plate; higher = stronger YAP/TEAD activation
Conditions: 24 h

Structure (SMILES) | TEAD-luciferase reporter activity (compound concentration: 200 nM) | TEAD-luciferase reporter activity (compound concentration: 2 uM) | TEAD-luciferase reporter activity (compound concentration: 10 uM)
CC(C)(CC(=O)O)Cc1nc2cc(Cl)cnc2n1Cc1ccc(Cl)cc1 | inactive: -1.44 | inactive: 0.498 | inactive: -0.487
O=C(NC(Cc1cc(=O)[nH]c2ccccc12)C(=O)O)c1ccc(Cl)cc1 (centres undefined) [rebamipide (ophthalmic)] | inactive: -3.12 | inactive: -1.55 | inactive: 0.501
NC12CC3CC(CC(C3)C1)C2 [Symmetrel665-66-7] | inactive: 0.415 | – | inactive: -0.613
Cc1ccccc1N1CCN(S(=O)(=O)C[C@]23CC[C@H](C[C@@H]2NC(=O)[C@@H](N)CCS(C)(=O)=O)C3(C)C)CC1 | inactive: -0.975 | inactive: 0.332 | inactive: 1.28
CC[C@H](NC(=O)[C@H](C)NC)C(=O)N1C[C@@H](O)C[C@H]1Cc1c(-c2[nH]c3cc(F)ccc3c2C[C@@H]2C[C@H](O)CN2C(=O)[C@H](CC)NC(=O)[C@H](C)NC)[nH]c2cc(F)ccc12 [Birinapant] | inactive: -1.35 | inactive: 0.991 | inactive: 1.36
C[C@H]1C[C@H](N)CN1c1cc2c(cc1F)c(=O)c(C(=O)O)cn2-c1ccc(F)cc1F | inactive: 0.0797 | inactive: -0.75 | inactive: 1.69
O=C(CCNC(=O)OCc1ccccc1)NCCS(=O)(=O)[O-] [Taurox SB] | inactive: 0.743 | inactive: -0.594 | inactive: -0.371
COc1ccccc1CNCCCCCCNCCCCCCCCNCCCCCCNCc1ccccc1OC [methoctramine] | inactive: -1.23 | – | inactive: -1.26
OC[C@H]1O[C@@H](c2ccc(Cl)c(Cc3ccc(O[C@H]4CCOC4)cc3)c2)[C@H](O)[C@@H](O)[C@@H]1O [Empagliflozin] | inactive: 1.82 | inactive: -0.727 | inactive: -0.846
COc1ccc2c(c1)c(CC(=O)O)c(C)n2C(=O)c1cccnc1 | inactive: -1.47 | inactive: 0.154 | inactive: -0.203
CN(C)CCCSc1c2ccccc2nn1Cc1ccccc1 [dazidamine] | inactive: -1.66 | inactive: -1.73 | inactive: 2.66
c1ccc(-c2cc(OCCCN3CCN(c4ccccn4)CC3)nn2-c2ccccc2)cc1 | inactive: 0.268 | inactive: -0.0238 | inactive: -0.506
O=S([O-])([O-])=S | inactive: 0.948 | inactive: -1.24 | inactive: -0.307
O=S([O-])([O-])=S [sodium thiosulfate] | – | inactive: -0.693 | –
CC(=O)c1ccccc1 | inactive: -1.26 | inactive: -1.01 | inactive: -1.92
C=CC1=C(C)C2=N/C/1=C\c1[nH]c(c(c1C)CC)/C=C/1\N=C3/C(=C/4\N/C(=C\2)/[C@@H](C)C4CCC(=O)O)/CC(=O)C3=C1C (some centres undefined) | inactive: -1.07 | inactive: -0.602 | inactive: 0.419
CN1N=C(N)c2cn([C@@H]3O[C@H](COP(=O)(O)O)[C@@H](O)[C@H]3O)c3ncnc1c23 [triciribine phosphate] | inactive: -0.278 | inactive: -1.22 | inactive: -1.36
CC(C)C(N)=O [Isobutyramide] | inactive: -0.532 | inactive: 0.919 | inactive: 0.248
COC[C@H](C)Oc1cc(Oc2cnc(C(=O)N3CCC3)cn2)cc(C(=O)Nc2ccn(C)n2)c1 | inactive: -0.199 | inactive: -1.35 | inactive: 0.357
CCC(OC)c1c(O)c(=O)cc(C)n1C (centres undefined) | inactive: -1.1 | inactive: -0.328 | inactive: -0.174
NCCC(=O)N1Cc2ccccc2CC2(CCCCN2CC2CCNCC2)C1 (centres undefined) | inactive: -1.33 | – | inactive: 2.08
CCc1cnc(N2CCC(c3nc(COc4ccc(-n5cnnn5)cc4)cs3)CC2)nc1 | inactive: -0.37 | inactive: -0.848 | active: 8.53
O=S(=O)(c1cccc2ccccc12)c1n[nH]c2ccc(N3CCNCC3)cc12 | inactive: -0.55 | inactive: -1.97 | inactive: -0.486
CC(C)C[C@@H](C(=O)N[C@H](c1noc(-c2cccs2)n1)C(C)(C)C)[C@H](O)C(=O)NO | inactive: 0.136 | inactive: -0.871 | inactive: 0.582
N=C1NCCN1CC(=O)O [Cyclocreatine] | inactive: -0.413 | inactive: 0.683 | inactive: -0.702
COc1cc([C@@H]2c3cc4c(cc3[C@@H](NC(=O)Cc3ccccc3)[C@H]3COC(=O)[C@H]23)OCO4)cc(OC)c1OC | inactive: 1.6 | inactive: 1.06 | inactive: -2.51
C[C@H](CSC(=O)c1ccccc1)C(=O)N1C[C@@H](Sc2ccccc2)C[C@H]1C(=O)O | inactive: -0.256 | inactive: 0.0183 | inactive: 1.57
NC1=N[C@@](c2cccc(-c3cncnc3)c2)(c2ccnc(C(F)F)c2)c2cccc(F)c21 | inactive: 0.368 | inactive: 0.0378 | inactive: -1.03

An excerpt of these results, as labelled records:
C[C@H]1C[C@H](N)CN1c1cc2c(cc1F)c(=O)c(C(=O)O)cn2-c1ccc(F)cc1F
  TEAD-luciferase reporter activity (compound concentration: 200 nM): inactive: 0.0797; TEAD-luciferase reporter activity (compound concentration: 2 uM): inactive: -0.75; TEAD-luciferase reporter activity (compound concentration: 10 uM): inactive: 1.69
C=CC1=C(C)C2=N/C/1=C\c1[nH]c(c(c1C)CC)/C=C/1\N=C3/C(=C/4\N/C(=C\2)/[C@@H](C)C4CCC(=O)O)/CC(=O)C3=C1C (some centres undefined)
  TEAD-luciferase reporter activity (compound concentration: 200 nM): inactive: -1.07; TEAD-luciferase reporter activity (compound concentration: 2 uM): inactive: -0.602; TEAD-luciferase reporter activity (compound concentration: 10 uM): inactive: 0.419
CC(C)C[C@@H](C(=O)N[C@H](c1noc(-c2cccs2)n1)C(C)(C)C)[C@H](O)C(=O)NO
  TEAD-luciferase reporter activity (compound concentration: 200 nM): inactive: 0.136; TEAD-luciferase reporter activity (compound concentration: 2 uM): inactive: -0.871; TEAD-luciferase reporter activity (compound concentration: 10 uM): inactive: 0.582

Next part

Structure (SMILES) | TEAD-luciferase reporter activity (compound concentration: 200 nM) | TEAD-luciferase reporter activity (compound concentration: 2 uM) | TEAD-luciferase reporter activity (compound concentration: 10 uM)
CCCCCC1C(O)CCC1CC(=O)O (centres undefined) | inactive: -0.162 | inactive: -0.334 | inactive: 1.29
N=C(N)c1cc2ccc(OC(=O)c3cccs3)cc2s1 | inactive: 1.28 | inactive: 2.84 | inactive: 0.537
NS(=O)(=O)c1cc2c(cc1Cl)NC(Cc1ccccc1)NS2(=O)=O (centres undefined) | inactive: 0.271 | inactive: -0.732 | inactive: 0.45
CCCC1(CCC)CCC2(CCN(CCCN(CC)CC)C2)CC1 [atiprimod dimaleate] | inactive: 0.0785 | inactive: -0.437 | inactive: 0.111
O[C@H]1[C@H](O)[C@@H](O)[C@H](O)[C@@H](O)[C@@H]1O [scyllo-Inositol] | inactive: -1.2 | inactive: -0.296 | inactive: -0.578
Cc1cc(O)c(C(=O)N[C@@H](C(=O)N[C@@H]2C(=O)N3C(C(=O)O)=C(CSc4nnnn4C)CS[C@H]23)c2ccc(O)cc2)cn1 [cefpiramide] | inactive: 0.557 | inactive: -0.73 | inactive: 0.936
CCNCCS(=O)(=O)NC[C@@]1(c2ccccc2)SC(NC(=O)C(C)(C)C)=NN1C(=O)C(C)(C)C [litronesib] | inactive: -1.45 | inactive: -1.02 | inactive: -0.64
O=C(O)[C@@H]1C[C@H](Cc2nnn[nH]2)CCN1 | inactive: -1.31 | – | inactive: 2.13
C=CC1=C(C(=O)O)N2C(=O)[C@@H](NC(=O)/C(=N/OCC(=O)O)c3csc(N)n3)[C@H]2SC1 [cefixime] | – | inactive: -1.88 | –
C=CC1=C(C(=O)O)N2C(=O)[C@@H](NC(=O)/C(=N/OCC(=O)O)c3csc(N)n3)[C@H]2SC1 | inactive: -0.783 | – | inactive: 2.68
O=C1N=C2C=CC=CN2C1(Cc1ccccc1)Cc1ccccc1 | inactive: -1.45 | inactive: -0.655 | inactive: 0.292
Cn1cnc2c(OCc3ccccc3Cl)nccc21 | inactive: 1.43 | inactive: 0.629 | inactive: 1.69
c1cnc(SCc2cccnc2)nc1 [tasuldine] | inactive: 0.856 | inactive: -1.43 | inactive: -0.351
O=C(O)Cc1cn(-c2ccccc2)nc1-c1ccc(Cl)cc1 [lonazolac calcium] | inactive: -1.56 | inactive: -0.195 | inactive: 1.51
CC(=O)CCCC(C)(C)CO | inactive: -1.79 | inactive: 2.24 | inactive: -1.96
CC(C)C[C@H](NC(=O)[C@H](C)NC(=O)[C@H](CCCNC(=N)N)NC(=O)[C@H](CCC(=O)O)NC(=O)[C@H](CC(C)C)NC(=O)[C@H](CCC(N)=O)NC(=O)[C@H](CCC(=O)O)NC(=O)[C@@H]1CCC(=O)N1)C(=O)N[C@@H](CC(N)=O)C(=O)N[C@@H](CO)C(=O)N[C@@H](CO)C(=O)O | inactive: 0.786 | inactive: -1.77 | inactive: -0.0274
CN(C)C(=O)NC1CCN(c2nc3ncccc3o2)CC1 | active: 6.35 | – | inactive: -0.86
O=C(OCCN1CCCC1)c1ccccc1Nc1ccnc2cc(C(F)(F)F)ccc12 | inactive: -0.612 | inactive: -1.11 | inactive: -0.19
Nc1nc2cc(-c3ccc4ncc(C(=O)N5CCOCC5)n4c3)ccc2o1 | inactive: -1.63 | inactive: -0.838 | inactive: -0.22
COC(=O)C(Cc1ccccc1)NC(=O)C(N)CC(=O)O (centres undefined) | inactive: -0.186 | inactive: -0.258 | inactive: 1.18
CN(NC(=O)CC(=O)NN(C)C(=S)c1ccccc1)C(=S)c1ccccc1 [elesclomol] | – | inactive: -0.483 | –
CN(NC(=O)CC(=O)NN(C)C(=S)c1ccccc1)C(=S)c1ccccc1 [Elesclomol] | inactive: -3.59 | – | inactive: -3.35
CC(C)C[C@H](NC(=O)[C@@H](O)[C@H](N)Cc1ccccc1)C(=O)O [Ubenimex] | – | inactive: -1.52 | –
CC(C)C[C@H](NC(=O)[C@@H](O)[C@H](N)Cc1ccccc1)C(=O)O | inactive: -0.72 | – | inactive: -0.14
COc1ccc(CCN2CCC[C@H](CN3CCc4cc(OC)c(OC)cc4CC3=O)C2)cc1OC [Cilobradine] | inactive: -0.778 | inactive: -1.22 | inactive: -0.77
CCOc1ccc2[nH]c(SCCN3CCOCC3)nc2c1 [Fabomotizole hydrochloride] | inactive: 0.645 | inactive: 0.105 | inactive: 0.456
COC(=O)C1=C(C)NC(C)=C(C(=O)OCC2COC3(CCN(c4ccc(Cl)cc4)CC3)O2)C1c1cccc([N+](=O)[O-])c1 (centres undefined) | inactive: -0.0151 | inactive: -1.3 | inactive: 0.199
